In the supplement of paper PMC6411743:
± gives the standard deviation of the averaged measurements. The entries are a selection whose mix differs from that of the whole data set. Most values lie at the level of the controls, where differences are scatter.

Protein sequences, listed by entry. Tags and fused reporters are not part of them. Lines headed by an entry give the natural chain unless they say otherwise; changes in a name come on top.
UniProt P51648: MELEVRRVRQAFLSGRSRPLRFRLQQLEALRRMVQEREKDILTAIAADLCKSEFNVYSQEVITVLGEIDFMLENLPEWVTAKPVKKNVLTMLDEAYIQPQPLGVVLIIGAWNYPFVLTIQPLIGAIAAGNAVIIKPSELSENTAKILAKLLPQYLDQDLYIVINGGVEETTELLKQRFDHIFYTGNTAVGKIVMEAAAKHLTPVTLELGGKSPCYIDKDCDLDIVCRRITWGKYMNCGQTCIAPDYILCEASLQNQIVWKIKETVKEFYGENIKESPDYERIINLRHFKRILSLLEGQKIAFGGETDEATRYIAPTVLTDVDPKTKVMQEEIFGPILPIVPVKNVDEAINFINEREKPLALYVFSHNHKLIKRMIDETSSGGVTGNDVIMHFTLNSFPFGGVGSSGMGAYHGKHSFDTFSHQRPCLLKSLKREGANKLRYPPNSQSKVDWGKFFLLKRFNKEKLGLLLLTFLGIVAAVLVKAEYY
UniProt Q9GZU7: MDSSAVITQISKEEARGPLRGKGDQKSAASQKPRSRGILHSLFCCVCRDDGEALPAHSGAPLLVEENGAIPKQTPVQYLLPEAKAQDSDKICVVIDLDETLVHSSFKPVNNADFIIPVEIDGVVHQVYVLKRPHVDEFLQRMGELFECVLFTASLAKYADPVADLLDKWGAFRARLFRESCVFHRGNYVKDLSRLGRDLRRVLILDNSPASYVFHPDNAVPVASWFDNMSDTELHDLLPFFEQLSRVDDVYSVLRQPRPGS
UniProt Q16822, whole entry: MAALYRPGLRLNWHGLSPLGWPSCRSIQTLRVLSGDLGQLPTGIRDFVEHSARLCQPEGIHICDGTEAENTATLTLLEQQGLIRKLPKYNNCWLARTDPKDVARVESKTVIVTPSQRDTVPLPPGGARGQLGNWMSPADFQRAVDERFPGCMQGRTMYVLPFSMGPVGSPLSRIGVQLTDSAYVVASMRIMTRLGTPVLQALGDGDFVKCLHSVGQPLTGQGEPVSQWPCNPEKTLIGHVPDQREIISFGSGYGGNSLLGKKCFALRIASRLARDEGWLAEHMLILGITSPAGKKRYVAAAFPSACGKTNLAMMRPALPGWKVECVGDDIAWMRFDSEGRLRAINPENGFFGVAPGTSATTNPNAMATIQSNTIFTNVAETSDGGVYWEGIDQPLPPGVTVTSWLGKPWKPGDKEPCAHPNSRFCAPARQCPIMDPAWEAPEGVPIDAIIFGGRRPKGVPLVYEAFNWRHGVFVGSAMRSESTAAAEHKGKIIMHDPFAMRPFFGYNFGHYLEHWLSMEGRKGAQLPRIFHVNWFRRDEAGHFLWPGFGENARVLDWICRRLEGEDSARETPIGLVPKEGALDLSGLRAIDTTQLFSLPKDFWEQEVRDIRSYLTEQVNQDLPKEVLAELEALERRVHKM
UniProt O43291: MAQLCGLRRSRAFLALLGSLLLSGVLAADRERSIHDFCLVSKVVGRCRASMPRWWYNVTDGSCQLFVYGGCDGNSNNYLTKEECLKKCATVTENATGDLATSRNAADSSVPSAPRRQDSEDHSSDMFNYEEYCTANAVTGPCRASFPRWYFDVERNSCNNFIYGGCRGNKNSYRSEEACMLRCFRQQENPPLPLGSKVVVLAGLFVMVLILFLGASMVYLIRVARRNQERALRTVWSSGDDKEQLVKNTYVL
UniProt Q8TF40: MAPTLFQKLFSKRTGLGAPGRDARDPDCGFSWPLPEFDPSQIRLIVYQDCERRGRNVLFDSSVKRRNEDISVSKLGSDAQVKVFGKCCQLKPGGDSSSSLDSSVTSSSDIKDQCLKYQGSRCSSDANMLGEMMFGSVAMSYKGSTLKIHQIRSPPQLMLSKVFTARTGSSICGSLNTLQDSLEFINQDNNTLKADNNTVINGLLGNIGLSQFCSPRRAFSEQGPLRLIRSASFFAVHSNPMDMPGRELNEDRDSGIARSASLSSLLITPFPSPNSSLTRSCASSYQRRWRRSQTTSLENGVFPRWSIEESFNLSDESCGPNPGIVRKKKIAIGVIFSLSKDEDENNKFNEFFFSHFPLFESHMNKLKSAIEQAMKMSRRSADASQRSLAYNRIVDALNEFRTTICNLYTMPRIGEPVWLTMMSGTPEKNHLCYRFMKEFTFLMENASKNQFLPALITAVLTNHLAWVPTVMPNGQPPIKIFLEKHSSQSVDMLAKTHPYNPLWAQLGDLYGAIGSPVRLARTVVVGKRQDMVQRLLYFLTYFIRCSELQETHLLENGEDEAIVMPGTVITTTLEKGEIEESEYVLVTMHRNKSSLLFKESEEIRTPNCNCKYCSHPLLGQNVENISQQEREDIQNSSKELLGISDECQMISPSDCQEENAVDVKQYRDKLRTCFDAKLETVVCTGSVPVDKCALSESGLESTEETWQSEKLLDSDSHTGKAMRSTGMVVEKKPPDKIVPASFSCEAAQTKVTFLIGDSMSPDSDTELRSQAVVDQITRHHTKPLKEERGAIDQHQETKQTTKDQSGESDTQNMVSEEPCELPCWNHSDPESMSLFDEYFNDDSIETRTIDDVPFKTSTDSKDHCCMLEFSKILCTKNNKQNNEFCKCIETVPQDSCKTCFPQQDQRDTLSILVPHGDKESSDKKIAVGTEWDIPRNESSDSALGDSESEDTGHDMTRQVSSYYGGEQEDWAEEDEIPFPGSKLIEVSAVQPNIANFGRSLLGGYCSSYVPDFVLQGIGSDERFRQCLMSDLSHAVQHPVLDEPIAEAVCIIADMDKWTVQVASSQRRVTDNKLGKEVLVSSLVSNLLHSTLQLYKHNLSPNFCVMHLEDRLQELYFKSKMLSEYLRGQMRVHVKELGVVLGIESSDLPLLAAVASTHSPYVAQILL
UniProt Q6PK04: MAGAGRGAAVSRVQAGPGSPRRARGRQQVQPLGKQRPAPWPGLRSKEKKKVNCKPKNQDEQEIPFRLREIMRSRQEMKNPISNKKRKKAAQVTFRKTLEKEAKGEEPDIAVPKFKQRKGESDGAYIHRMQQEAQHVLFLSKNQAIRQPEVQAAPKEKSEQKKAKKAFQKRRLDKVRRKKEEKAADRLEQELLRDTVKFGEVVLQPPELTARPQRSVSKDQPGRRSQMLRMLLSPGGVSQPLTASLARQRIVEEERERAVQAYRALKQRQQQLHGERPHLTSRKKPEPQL
UniProt Q9BQD3: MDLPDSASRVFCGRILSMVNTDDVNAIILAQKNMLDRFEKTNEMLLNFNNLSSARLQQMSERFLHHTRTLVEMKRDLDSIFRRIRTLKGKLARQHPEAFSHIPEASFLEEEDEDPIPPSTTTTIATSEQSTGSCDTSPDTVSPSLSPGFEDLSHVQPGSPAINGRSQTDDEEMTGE
UniProt Q6NW29: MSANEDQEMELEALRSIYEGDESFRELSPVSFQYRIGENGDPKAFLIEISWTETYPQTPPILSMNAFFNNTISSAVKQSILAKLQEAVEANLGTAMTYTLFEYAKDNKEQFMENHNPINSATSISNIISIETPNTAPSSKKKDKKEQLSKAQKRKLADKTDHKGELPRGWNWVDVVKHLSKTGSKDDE
UniProt P15735: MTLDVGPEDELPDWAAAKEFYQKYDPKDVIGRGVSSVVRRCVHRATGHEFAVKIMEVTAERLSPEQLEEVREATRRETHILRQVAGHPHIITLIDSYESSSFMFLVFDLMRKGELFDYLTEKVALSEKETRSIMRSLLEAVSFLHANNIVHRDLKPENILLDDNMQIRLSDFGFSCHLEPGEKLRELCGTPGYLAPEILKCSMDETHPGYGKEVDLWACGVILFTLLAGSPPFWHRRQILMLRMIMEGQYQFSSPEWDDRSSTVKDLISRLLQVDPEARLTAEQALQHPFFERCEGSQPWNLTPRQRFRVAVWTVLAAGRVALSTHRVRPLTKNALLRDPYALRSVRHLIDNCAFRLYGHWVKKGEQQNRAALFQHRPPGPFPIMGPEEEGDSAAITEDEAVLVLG
UniProt Q16543: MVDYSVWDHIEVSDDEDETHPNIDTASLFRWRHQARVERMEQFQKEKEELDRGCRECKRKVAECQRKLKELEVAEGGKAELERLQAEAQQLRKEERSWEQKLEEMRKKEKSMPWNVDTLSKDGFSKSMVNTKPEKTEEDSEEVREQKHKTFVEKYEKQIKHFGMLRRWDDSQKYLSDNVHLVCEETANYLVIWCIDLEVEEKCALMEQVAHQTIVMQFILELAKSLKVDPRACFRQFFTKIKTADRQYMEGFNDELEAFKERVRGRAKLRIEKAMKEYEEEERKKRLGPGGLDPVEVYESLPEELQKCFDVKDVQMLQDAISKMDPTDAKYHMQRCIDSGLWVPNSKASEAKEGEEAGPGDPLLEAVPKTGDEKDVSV
UniProt Q9H9Q4: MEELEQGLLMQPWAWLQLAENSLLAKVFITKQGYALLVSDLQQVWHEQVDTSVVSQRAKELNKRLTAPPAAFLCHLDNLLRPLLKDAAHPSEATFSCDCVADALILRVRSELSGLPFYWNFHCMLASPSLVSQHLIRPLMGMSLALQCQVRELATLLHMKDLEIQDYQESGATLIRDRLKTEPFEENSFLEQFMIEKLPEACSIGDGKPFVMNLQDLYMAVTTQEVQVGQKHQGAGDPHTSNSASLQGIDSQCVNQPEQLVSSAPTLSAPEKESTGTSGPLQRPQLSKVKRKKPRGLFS
UniProt Q12873: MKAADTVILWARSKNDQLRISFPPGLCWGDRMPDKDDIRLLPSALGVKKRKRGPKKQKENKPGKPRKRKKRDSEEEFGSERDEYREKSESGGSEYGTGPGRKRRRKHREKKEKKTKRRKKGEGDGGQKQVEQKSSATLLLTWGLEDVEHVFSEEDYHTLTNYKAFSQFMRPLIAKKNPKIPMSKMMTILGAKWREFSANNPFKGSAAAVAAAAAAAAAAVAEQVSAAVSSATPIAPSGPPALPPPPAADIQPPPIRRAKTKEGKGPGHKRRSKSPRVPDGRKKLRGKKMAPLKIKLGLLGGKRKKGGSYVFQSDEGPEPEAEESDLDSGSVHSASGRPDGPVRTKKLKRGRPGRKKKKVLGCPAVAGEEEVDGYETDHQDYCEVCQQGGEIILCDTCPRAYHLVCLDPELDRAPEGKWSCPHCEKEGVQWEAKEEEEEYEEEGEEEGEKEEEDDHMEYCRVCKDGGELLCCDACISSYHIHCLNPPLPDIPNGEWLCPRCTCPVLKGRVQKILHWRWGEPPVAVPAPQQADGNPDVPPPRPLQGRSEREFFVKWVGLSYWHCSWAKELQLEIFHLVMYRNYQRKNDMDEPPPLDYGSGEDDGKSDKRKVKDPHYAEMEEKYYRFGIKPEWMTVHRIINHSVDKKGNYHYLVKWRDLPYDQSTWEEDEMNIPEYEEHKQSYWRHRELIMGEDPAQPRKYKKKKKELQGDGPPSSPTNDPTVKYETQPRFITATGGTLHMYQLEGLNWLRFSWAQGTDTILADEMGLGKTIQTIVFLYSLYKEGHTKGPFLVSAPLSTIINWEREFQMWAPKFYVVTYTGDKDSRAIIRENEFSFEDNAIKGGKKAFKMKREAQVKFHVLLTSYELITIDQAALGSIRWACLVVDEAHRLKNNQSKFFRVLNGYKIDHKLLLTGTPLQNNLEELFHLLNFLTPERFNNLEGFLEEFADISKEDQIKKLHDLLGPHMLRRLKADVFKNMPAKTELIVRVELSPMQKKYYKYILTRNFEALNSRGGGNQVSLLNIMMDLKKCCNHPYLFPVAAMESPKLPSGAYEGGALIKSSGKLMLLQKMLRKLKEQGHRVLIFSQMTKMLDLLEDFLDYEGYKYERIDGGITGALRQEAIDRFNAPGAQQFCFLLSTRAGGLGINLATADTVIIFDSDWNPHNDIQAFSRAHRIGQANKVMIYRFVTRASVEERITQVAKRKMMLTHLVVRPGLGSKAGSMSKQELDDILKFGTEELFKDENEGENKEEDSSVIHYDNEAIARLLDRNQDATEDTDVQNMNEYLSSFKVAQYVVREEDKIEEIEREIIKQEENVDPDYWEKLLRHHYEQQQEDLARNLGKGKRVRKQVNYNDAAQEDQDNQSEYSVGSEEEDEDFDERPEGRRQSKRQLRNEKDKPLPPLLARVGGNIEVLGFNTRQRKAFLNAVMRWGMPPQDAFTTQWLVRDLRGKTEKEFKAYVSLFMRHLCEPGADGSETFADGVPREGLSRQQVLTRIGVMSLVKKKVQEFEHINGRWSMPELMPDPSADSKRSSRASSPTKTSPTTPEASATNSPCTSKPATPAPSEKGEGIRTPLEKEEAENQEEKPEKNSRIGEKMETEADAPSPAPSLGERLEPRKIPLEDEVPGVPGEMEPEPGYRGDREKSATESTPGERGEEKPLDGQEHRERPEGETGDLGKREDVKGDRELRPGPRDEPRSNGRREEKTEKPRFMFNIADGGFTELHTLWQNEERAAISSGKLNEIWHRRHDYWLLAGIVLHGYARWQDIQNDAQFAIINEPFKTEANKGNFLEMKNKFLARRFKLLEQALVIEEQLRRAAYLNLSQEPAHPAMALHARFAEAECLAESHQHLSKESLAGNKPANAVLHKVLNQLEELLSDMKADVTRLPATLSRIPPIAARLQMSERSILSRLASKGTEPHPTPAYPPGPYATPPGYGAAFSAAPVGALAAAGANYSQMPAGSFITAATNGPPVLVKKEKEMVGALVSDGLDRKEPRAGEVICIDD

These targets were tested with Nc1ncnc2c1ncn2[C@@H]1O[C@H](COP(=O)(O)OP(=O)(O)OP(=O)(O)O)[C@@H](O)[C@H]1O [adenosine triphosphate] (assay: NP40-soluble protein abundance relative to vehicle (solubility fold change) (ratio); higher = more soluble protein in presence of ATP). Settings: concentration: 0.5mM.
Procedure, shortened: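 Each value is a fold change relative to the detergent-processed vehicle, calculated per replicate from vsn-normalised intensities. Jurkat crude lysate received eight concentrations (0.1 to 10 mM) for 10 min at room temperature and 3 min at 37 °C, then was solubilised in 0.8% NP40 with benzonase (60 min, 4 °C). The ultracentrifuged supernatant was TMT-labelled and run by LC-MS/MS in three independent experiments.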

Target	NP40-soluble protein abundance
H0Y9S9 and related entries (UniProt O43314)	1.02 ± 0.059
H0YKW3 and related entries (UniProt Q9H079)	0.925 ± 0.02
H3BQD1 and related entries (UniProt Q93009)	1.06 ± 0.083
H3BSW6 and related entries (UniProt Q2VPK5)	1.02 ± 0.05
H0Y4T4 and related entries (UniProt Q5SW79)	1.04 ± 0.054
H7BYJ3 and related entries (UniProt O14578)	1.05 ± 0.042
H3BLT9 and related entries (UniProt Q7RTR2)	1.07 ± 0.047
J3QRD1 and related entries (UniProt P51648)	1.01 ± 0.015
H7C1Z7 and related entries (UniProt Q9GZU7)	1.17 ± 0.23
I3L182 and related entries (UniProt Q9UQ35)	1.23 ± 0.045
H0YM31 and related entries (UniProt Q16822)	1.01 ± 0.065
J3KPT4 and related entries (UniProt Q9H4I3)	1.04 ± 0.064
K7EM91 and related entries (UniProt O43291)	0.98 ± 0.11
J3KNG8 and related entries (UniProt Q8TF40)	0.982 ± 0.042
I3L0U5 and related entries (UniProt Q6PK04)	0.979 ± 0.097
J3KP75 and related entries (UniProt O75167)	0.882 ± 0.031
M0QY77 and related entries (UniProt Q9BQD3)	0.807 ± 0.18
H7C3X7 and related entries (UniProt Q2T9K0)	0.91 ± 0.38
K7EL60 and related entries (UniProt O75821)	1.01 ± 0.069

9 successive records already listed, quoted:
Target	NP40-soluble protein abundance
H3BSW6 and related entries (UniProt Q2VPK5)	1.02 ± 0.05
H0Y4T4 and related entries (UniProt Q5SW79)	1.04 ± 0.054
H7BYJ3 and related entries (UniProt O14578)	1.05 ± 0.042
H3BLT9 and related entries (UniProt Q7RTR2)	1.07 ± 0.047
J3QRD1 and related entries (UniProt P51648)	1.01 ± 0.015
H7C1Z7 and related entries (UniProt Q9GZU7)	1.17 ± 0.23
I3L182 and related entries (UniProt Q9UQ35)	1.23 ± 0.045
H0YM31 and related entries (UniProt Q16822)	1.01 ± 0.065
J3KPT4 and related entries (UniProt Q9H4I3)	1.04 ± 0.064

Next part

Target	NP40-soluble protein abundance
J3KPC8 and related entries (UniProt Q9Y2K2)	1.03 ± 0.08
K4DI92 and related entries (UniProt Q6NW29)	0.9 ± 0.053
UniProt I3L0E3	0.951 ± 0.035
H0YN65 and related entries (UniProt Q8NCH0)	0.841 ± 0.028
J3KNN3 and related entries (UniProt P15735)	0.967 ± 0.062
J3KQL8 (UniProt Q9BQE5)	1.02 ± 0.013
H0YK61 and related entries (UniProt Q5J8M3)	0.974 ± 0.047
H0YNG3 and related entries (UniProt P67812)	1.02 ± 0.066
J3QS41 and related entries (UniProt P42694)	1.01 ± 0.041
H0Y9Z5 and related entries (UniProt Q96LI5)	1.17 ± 0.2
M0QX46 and related entries (UniProt Q6UUV9)	1.006 ± 0.0053
J3KR58 and related entries (UniProt Q99611)	1.03 ± 0.097
H0YEM9 (UniProt Q8NCP5)	1.1 ± 0.14
K7EL68 and related entries (UniProt Q16543)	0.991 ± 0.042
H7C0G7 and related entries (UniProt Q9H9Q4)	1.07 ± 0.086
H7C3H7 and related entries (UniProt Q12873)	1.14 ± 0.059
G5E9Q6 and related entries (UniProt P35080)	0.97 ± 0.032
J3KR72 and related entries (UniProt P49848)	1.09 ± 0.1
H0YNP9 and related entries (UniProt Q8N4P3)	1.06 ± 0.14
